Some results were stated once for a whole list of compounds, not compound by compound.
Tested on: LPS-induced sepsis
Assay: Survival in LPS mouse model of sepsis
Assay type: in vivo
Details: LPS mice, clinically relevant doses, summary over the three drugs
Method: Fifty-percent of all mice with LPS-induced sepsis that are left untreated are dead within 48 hours. When these LPS mice are treated with clinically relevant doses of the common and experimental sepsis drugs hydrocortisone, antithrombin III or sivelestat, survival ranged from 40-56%, similar to current clinical outcomes. In contrast, when LPS mice were co-administered CAR at the same time as hydrocortisone, antithrombin III or sivelestat, experimental sepsis survival improved to 83-89%.
Injection of the bacterial protein, lipopolysaccharide (LPS), was used to induce sepsis in mice. Doses were given at 3, 6, 9, and 12 hours to match the clinical use of sivelestat. Survival was measured up to 48 hours after LPS injection. At 48 hours, the survival rate of CAR pharmacophore+sivelestat treated animals was 89% compared to 50% in both control and sivelestat only groups, representing a 78% increase in survival of animals treated with CAR pharmacophore (FIG. 12).
Sepsis was initiated and survival measured with doses given at 3 and 24 hours to match the clinical use of ATIII. […]
CAR pharmacophore dramatically improves survival in septic mice treated with hydrocortisone steroid. Sepsis was initiated and survival measured with doses given at 3 and 24 hours to match the clinical use of hydrocortisone. […]

| SMILES | survival |
| --- | --- |
| C[C@]12CCC(=O)C=C1CC[C@@H]1[C@@H]2[C@@H](O)C[C@@]2(C)[C@H]1CC[C@]2(O)C(=O)CO [hydrocortisone] | 40-56% |
| CC(C)(C)C(=O)Oc1ccc(S(=O)(=O)Nc2ccccc2C(=O)NCC(=O)O)cc1 [sivelestat] | 40-56% |
